Source: publication PMC11481892

Sequences of proteins named here, by UniProt entry; tags and fusion partners are left off. A change or cut given only in a name is not applied to a line headed by its entry.
UniProt C6KTD3: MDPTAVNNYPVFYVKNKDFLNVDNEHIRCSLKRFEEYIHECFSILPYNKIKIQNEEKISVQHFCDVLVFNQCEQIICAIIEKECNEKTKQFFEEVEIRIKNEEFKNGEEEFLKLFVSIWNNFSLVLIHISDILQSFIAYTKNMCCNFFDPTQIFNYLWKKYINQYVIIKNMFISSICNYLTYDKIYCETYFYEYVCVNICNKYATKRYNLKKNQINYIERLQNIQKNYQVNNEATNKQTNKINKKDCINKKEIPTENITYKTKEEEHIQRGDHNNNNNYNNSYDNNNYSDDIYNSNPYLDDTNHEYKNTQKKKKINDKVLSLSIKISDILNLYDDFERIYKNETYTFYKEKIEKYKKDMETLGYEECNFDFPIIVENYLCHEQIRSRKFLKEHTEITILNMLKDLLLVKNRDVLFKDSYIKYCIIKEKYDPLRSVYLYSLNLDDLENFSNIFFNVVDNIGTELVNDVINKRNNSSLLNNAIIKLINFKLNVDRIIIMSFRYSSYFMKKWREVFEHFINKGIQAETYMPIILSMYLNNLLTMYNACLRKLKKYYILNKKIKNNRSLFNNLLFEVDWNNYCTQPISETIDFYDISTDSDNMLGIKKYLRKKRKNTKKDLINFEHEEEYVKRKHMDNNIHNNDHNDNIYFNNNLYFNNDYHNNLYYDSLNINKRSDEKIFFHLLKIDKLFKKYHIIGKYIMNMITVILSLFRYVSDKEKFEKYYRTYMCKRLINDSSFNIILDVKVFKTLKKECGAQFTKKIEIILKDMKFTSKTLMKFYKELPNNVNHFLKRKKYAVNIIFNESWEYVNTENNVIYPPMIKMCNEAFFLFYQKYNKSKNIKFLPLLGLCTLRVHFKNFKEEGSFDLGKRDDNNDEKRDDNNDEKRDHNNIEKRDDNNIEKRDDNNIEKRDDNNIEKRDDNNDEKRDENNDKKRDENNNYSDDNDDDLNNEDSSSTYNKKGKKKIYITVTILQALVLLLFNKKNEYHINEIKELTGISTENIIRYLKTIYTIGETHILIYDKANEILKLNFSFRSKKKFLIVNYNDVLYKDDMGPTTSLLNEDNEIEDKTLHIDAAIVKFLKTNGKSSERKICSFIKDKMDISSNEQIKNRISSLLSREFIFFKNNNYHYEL
UniProt A0A509AI98: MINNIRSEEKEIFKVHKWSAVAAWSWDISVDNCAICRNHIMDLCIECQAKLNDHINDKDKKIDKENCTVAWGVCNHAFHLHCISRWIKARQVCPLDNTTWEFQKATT
UniProt A0A509AK91: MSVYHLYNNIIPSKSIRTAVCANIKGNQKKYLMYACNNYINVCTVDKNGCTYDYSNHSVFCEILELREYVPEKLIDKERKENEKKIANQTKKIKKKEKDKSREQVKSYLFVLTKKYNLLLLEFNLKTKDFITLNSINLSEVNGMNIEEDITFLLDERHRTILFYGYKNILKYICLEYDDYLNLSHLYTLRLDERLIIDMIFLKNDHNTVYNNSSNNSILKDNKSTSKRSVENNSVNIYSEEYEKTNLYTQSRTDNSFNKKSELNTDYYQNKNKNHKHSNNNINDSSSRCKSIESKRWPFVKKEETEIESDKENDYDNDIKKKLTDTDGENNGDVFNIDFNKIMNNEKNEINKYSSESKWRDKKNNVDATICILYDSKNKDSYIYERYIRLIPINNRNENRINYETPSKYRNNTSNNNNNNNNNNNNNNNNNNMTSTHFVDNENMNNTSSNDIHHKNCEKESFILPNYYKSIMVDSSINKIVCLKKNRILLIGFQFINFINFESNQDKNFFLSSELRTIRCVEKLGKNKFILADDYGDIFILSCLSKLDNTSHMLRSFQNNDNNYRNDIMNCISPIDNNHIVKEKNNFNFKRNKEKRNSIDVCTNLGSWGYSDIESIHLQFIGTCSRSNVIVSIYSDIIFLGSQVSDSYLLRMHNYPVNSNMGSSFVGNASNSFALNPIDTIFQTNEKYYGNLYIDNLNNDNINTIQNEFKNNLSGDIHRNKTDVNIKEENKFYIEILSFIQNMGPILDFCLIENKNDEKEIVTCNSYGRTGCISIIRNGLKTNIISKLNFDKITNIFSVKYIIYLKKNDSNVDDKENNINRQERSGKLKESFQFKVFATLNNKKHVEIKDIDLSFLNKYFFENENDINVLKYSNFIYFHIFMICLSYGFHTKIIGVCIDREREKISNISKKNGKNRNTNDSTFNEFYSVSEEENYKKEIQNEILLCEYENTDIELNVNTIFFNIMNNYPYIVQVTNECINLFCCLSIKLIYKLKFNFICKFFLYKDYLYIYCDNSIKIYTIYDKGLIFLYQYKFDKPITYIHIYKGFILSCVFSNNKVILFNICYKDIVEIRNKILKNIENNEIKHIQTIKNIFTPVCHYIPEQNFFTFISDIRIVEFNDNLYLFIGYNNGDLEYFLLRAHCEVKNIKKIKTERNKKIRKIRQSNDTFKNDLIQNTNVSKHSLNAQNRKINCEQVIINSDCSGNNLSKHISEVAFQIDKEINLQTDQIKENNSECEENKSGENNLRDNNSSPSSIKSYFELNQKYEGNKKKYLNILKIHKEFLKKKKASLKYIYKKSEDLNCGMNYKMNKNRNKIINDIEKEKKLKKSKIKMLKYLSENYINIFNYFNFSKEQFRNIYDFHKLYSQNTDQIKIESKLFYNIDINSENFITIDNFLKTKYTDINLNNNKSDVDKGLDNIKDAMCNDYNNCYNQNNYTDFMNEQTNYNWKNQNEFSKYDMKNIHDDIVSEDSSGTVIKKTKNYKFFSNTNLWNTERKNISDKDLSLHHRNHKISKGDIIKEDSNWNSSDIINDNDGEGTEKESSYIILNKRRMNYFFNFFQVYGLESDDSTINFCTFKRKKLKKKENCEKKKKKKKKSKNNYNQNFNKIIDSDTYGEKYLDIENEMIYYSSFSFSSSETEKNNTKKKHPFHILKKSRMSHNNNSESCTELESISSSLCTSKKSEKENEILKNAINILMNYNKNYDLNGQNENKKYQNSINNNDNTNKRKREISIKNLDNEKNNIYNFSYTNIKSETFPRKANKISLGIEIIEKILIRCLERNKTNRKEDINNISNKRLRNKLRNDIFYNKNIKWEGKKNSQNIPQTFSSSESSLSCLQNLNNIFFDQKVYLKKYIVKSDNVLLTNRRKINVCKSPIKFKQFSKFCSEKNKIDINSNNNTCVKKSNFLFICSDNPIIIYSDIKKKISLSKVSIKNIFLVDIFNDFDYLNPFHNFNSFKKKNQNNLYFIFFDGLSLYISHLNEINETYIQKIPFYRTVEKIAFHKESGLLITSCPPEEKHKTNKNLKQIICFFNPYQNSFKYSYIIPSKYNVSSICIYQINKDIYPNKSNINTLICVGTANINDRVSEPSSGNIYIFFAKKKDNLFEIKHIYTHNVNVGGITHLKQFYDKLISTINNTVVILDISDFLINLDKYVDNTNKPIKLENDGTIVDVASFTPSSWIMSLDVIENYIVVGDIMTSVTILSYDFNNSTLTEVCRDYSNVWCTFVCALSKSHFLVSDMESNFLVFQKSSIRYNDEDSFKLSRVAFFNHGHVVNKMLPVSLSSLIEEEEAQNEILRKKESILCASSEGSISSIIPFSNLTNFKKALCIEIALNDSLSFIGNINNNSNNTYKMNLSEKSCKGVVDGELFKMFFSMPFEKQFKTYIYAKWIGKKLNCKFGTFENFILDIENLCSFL
UniProt A0A509AZB5: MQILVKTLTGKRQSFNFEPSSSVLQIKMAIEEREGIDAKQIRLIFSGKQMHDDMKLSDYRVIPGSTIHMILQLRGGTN
UniProt A0A509AQC3: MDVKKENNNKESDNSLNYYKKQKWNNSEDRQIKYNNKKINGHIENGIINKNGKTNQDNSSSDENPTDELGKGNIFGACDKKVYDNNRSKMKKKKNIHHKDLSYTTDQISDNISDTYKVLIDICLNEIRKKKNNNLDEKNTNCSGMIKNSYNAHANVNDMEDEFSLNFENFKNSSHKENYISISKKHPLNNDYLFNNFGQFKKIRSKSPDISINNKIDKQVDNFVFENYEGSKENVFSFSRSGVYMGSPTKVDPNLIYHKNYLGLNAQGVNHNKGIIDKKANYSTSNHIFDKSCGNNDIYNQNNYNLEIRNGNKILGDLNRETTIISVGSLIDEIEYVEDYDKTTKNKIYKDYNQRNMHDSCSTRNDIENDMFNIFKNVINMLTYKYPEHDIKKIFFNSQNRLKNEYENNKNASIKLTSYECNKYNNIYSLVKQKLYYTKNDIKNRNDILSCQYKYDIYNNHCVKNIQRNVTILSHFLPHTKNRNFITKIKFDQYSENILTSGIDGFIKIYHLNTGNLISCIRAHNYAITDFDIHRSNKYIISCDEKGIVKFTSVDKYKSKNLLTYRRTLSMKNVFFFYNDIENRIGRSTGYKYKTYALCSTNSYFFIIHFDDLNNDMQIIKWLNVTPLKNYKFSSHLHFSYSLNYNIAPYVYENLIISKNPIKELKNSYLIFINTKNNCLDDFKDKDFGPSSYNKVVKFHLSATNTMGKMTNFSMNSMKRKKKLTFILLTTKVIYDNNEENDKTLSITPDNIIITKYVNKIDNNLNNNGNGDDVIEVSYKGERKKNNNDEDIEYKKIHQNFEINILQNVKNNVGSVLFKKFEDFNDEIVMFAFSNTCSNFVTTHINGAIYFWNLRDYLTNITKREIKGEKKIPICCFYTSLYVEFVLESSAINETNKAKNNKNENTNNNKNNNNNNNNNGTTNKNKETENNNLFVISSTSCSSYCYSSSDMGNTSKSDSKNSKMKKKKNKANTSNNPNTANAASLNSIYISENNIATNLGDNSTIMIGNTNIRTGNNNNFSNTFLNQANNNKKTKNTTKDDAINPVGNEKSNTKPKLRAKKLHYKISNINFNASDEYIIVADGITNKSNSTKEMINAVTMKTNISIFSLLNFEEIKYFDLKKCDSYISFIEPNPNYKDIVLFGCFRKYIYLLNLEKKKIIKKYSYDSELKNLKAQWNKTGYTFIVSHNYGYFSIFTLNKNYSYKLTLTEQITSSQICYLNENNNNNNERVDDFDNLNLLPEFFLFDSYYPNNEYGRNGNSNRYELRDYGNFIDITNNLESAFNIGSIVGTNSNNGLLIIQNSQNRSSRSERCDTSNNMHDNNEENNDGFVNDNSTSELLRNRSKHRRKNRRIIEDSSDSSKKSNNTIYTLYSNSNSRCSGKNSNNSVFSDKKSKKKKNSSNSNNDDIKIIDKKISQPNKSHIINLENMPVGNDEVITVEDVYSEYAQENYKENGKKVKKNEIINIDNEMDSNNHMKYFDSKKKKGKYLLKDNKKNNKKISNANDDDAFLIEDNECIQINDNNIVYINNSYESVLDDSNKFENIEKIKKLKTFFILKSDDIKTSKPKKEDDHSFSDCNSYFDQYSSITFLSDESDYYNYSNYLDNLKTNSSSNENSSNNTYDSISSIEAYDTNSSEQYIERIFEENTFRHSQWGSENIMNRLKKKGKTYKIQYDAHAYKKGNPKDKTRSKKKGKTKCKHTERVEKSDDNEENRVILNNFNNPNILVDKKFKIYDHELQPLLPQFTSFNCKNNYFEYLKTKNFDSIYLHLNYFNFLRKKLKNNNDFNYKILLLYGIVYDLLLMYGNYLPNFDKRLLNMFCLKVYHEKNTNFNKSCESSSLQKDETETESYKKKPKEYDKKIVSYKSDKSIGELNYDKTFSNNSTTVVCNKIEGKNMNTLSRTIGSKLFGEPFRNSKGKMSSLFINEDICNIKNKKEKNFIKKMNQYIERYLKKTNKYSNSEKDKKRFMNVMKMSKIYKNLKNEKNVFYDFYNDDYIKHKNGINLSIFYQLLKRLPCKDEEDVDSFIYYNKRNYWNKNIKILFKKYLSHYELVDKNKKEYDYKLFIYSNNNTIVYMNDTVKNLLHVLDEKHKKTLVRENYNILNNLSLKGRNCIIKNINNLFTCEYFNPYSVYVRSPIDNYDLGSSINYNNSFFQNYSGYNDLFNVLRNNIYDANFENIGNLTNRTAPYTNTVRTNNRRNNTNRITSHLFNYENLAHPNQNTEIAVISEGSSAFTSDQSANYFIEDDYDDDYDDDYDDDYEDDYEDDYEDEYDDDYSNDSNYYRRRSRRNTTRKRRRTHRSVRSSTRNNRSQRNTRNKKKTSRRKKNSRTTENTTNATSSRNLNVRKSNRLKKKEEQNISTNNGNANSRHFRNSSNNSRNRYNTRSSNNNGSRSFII

Columns and labels:
[1] = biological target: HA-tagged PbWIG1 (PBANKA_1216700) (P. berghei); test: affinity purification with mass spectrometry; HA-tagged bait captured on anti-HA magnetic beads from P. berghei gametocytes 4 min after activation, fixed 10 min with 1% formaldehyde, lysed in RIPA buffer; label-free semiquantitative LC-MS/MS; compared with FBXO1-HA immunoprecipitations (earlier work) as control; n = 2
[2] = biological target: triple HA-tagged PbCUL4 (PBANKA_1128600) (P. berghei); test: as above
[3] = biological target: HA-tagged PfCUL4 (Cullin-4, PF3D7_0629800) (P. falciparum) (UniProt C6KTD3); test: affinity purification with mass spectrometry; PfCUL4-HA captured on magnetic anti-HA resin from lysate of synchronized P. falciparum schizonts (50 mM HEPES pH 7.5, 150 mM NaCl, 1% Triton X-100), 2 h at 4°C, eluted with HA peptide, LC-MS/MS; WT untransfected line as control; n = 3
[4] = biological target: HA-tagged PbDDB1 (PBANKA_0807500) (P. berghei); test: affinity purification with mass spectrometry; HA-tagged bait captured on anti-HA magnetic beads from P. berghei gametocytes 4 min after activation, fixed 10 min with 1% formaldehyde, lysed in RIPA buffer; label-free semiquantitative LC-MS/MS; compared with FBXO1-HA immunoprecipitations (earlier work) as control; n = 2

Substance | binding [1] | binding [2] | binding [3] | further results
RBX1 (PBANKA_0806200) (from UniProt A0A509AI98) | binds | – | – | –
WD domain protein PF3D7_1410300 (from UniProt Q8ILZ2) | – | – | binds | –
WD-repeat protein important for gametogenesis 1 (WIG1; PF3D7_0321800) (from UniProt O97292) | – | – | binds | –
karyopherin β (PF3D7_0524000) (from UniProt Q8I3M5) | – | – | binds | –
ubiquitin carboxyl-terminal hydrolase (PfUCH7; PF3D7_0726500) (from UniProt Q8IBJ1) (enzyme) | – | – | binds | –

Now from value to substance, other results behind:

binding [1] | binding [2] | binding [3] | Substance | further results
binds | – | – | DDB1 (PBANKA_0807500) (from UniProt A0A509AK91) | –
binds | binds | – | Nedd8 (PBANKA_1411400) (from UniProt A0A509AZB5) | –
– | binds | – | WD-repeat protein important for gametogenesis 1 (WIG1; PBANKA_1216700) (from UniProt A0A509AQC3) | binding [4]: binds
– | binds | – | ubiquitin carboxyl-terminal hydrolase (PbUCH7; PBANKA_0210600) (from UniProt A0A509AEF7) (enzyme) | –

No constants are given. Whether binding was seen depends on the method and setting. Binding seen in cells or lysates may run through a third protein. A yes stands for co-enrichment or nearness to the bait. Other partners may have been found.
